Reference: patent US20250177473A1, “PEPTIDE REGULATORS OF METABOLISM” (Metabico, Inc., priority 2022, published 2025)
At least one peptide structure holds a part that was inferred or is arguable (an end, a ring closure or a residue). Residues, ends and D or L forms follow the SMILES beside them.

Assays:
[1] = molecular target: T1, NPSR1 (the receptor of neuropeptide S) (Homo sapiens, UniProt Q6W5P4); experiment: Full Functional GPCR Panel (Eurofins Cerep): NPSR1, intracellular Ca2+; format: cell-based; conditions: EPSI 100 μM; HEK-293 cells expressing NPSR1
T1 construct: host or cells: HEK-293
T1 sequence (Q6W5P4 1-371): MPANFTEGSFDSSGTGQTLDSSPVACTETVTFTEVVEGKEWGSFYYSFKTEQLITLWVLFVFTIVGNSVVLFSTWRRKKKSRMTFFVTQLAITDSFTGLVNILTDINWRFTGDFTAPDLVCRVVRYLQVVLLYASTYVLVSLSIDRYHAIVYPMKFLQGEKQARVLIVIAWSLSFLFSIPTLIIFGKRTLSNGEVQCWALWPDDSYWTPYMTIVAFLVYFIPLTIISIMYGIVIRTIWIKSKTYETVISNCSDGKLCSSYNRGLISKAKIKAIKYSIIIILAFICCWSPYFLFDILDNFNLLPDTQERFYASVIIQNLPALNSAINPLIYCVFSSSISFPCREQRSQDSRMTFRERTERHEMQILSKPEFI
Description: EPSI peptide was tested in the dose of 100 μM in 326 functional assays (163 GPCRs both in agonist and antagonist modes) combined in Full Functional GPCR Panel (item P343) provided by Eurofins Cerep SA.
Each cell-based assay was performed by application of the peptide to cell lines expressing individual receptors with subsequent measuring Ca2+, IP1, or cAMP depending on the receptor type. In the case of antagonist mode assays, the peptide was applied together with the control agonist.
Cellular agonist effect was calculated as a % of control response to a known reference agonist for each target and cellular antagonist effect was calculated as a % inhibition of control reference agonist response for each target.
EPSI peptide induced activating effect provided by 10 nM of control agonist NPS (neuropeptide S) by 56.4±8.5% in HEK-293 cells expressing NPSR1 (the receptor of neuropeptide S). Activation of NPSR1 was measured by the changes in intracellular Ca2+ levels.

[2] = system: Sprague-Dawley rats on a high-sucrose diet; experiment: Blood serum biochemistry (LDL, glucose, insulin, HOMA-IR) in HSD rats; format: in vivo, rat; conditions: EPSI 10 mg/kg i.p., 2 h; 6 weeks HSD
NFATc1-reporter = experiment: NFATc1 luciferase reporter in HepG2 cells; format: cell-based, human; conditions: EPSI 0.05 mg/ml, 16 hours
[3] = system: C57BL/6 mice on a high-fat diet; experiment: Visceral fat weight and adipocyte histology after chronic administration in HFD mice; format: in vivo, mouse; conditions: four weeks
Description: Groups of 10 animals were formed from the existing groups from Stage 2, with similar mean body weight (Table 6). The animals' bodyweight was monitored three times a week, water, and feed consumption—weekly. After the last treatment, the animals were euthanized for necropsy and their blood collected. The internal organs were examined for the presence of macro damage and weighed. The adipose tissue surrounding the epididymis was evaluated as a marker of obesity in animals. For histological examination, samples of adipose tissue and liver tissue were fixed in 10% formalin solution for further histological analysis.
After necropsy, the following internal organs were weighed: adrenal glands, kidneys, liver, pancreas, heart, spleen, and testicles.
During necropsy, the body's external state, internal surfaces, the cranial cavity, chest, abdominal and pelvic cavities with organs and tissues located in them, the neck with organs and tissues, the skeleton, and the musculoskeletal system were examined. The organs and tissues were fixed in 10% formalin. Liver and adipose tissue samples were weighed and stored in 10% formalin for subsequent histological analysis.
Histological analysis of liver and adipose tissue was performed for all euthanized animals. For this, the fixed tissues were dehydrated, soaked in paraffin. The paraffin blocks were then cut into sections. Sections were standardly stained with hematoxylin and eosin. Tissue specimens were examined by light microscopy.
Microscopic analysis was performed using a DMLA Leica transmitted light microscope (Germany), a Photometrics Cool SNAP cf video camera (USA), and Mekos software (Russia). Estimated parameters were the size of lipid granules in the cytoplasm of hepatocytes (in microns), the linear size of visceral fat adipocytes (in microns), thickness of the subcutaneous layer of parietal fat (in microns). One hundred adipocytes were measured on sections of the visceral fat samples in 15-20 random fields of view.

[4] = system: AP1-reporter (c-Jun/c-Fos heterodimer); experiment: AP1 luciferase reporter in HepG2 cells; format: cell-based, human; conditions: EPSI 0.05 mg/ml, 16 hours
[5] = system: male mice of CBA and C57Bl/6 hybrids, food deprived 12 hours; experiment: Home cage feed consumption test; format: in vivo, mouse; conditions: EPSI 5 mg/kg i.n. before testing
Description: The work was performed on 30 mature male mice of the first generation of CBA and C57Bl/6 hybrids weighing 22-24 grams. The animals were divided into treatment groups (Table 1).
Solutions for intranasal (i.n.) administration were prepared by dissolving the peptide in saline. The volume of i.n. administration: 1 μl per 1 g of animal weight. Solutions for intraperitoneal (i.p.) administration were prepared by dissolving the drug in saline. The volume of […]. administration: 10 μl per 1 g of animal weight. Solutions were prepared directly on the day of the experiment before the experiment.
All manipulations with animals were performed at the end of the adaptation period of 14 days.
Day 1—Adaptation of animals to the home cage food consumption test. In the evening, animals were deprived of food for 12 hours (overnight).
Day 2—Administration of the test substances and the food consumption test in a home cage for 1.5 hours. Before and after the test, the animals were weighed.
This test was performed to assess the appetite of animals after the treatment with tested compounds. The test was performed in 2 days.
Day 1—The day before the test, the animals were adapted to the experimental conditions. For this, a cage similar to the home cage was used, in the center of which an empty Petri dish was placed. The adaptation lasted 90 minutes. In the evening, animals were deprived of food overnight.
Day 2—The test was performed in a cage used for adaptation, in the center of which two pre-weighed food pellets were placed in a Petri dish. After 30, 60, and 90 minutes, the food from the cage was weighed. […]
Statistical data processing was carried out using nonparametric criteria (Mann-Whitney) for samples with a distribution other than normal. Normally distributed data were analyzed with one-way ANOVA (only Treatment factor) or repeated measures ANOVA (dynamics) with post hoc Fisher test. […]

[6] = system: Stat4-reporter (IFN-γ promoter); experiment: Stat4 (IFN-γ promoter) luciferase reporter in HepG2 cells; format: cell-based, human; conditions: EPSI 0.05 mg/ml, 16 hours

In the case of `CC[C@H](C)[C@H](NC(=O)[C@H](CO)NC(=O)[C@@H]1CCCN1C(=O)[C@@H](N)CCC(=O)O)C(=O)O` [EPSI] (H-EPSI-OH), the “effect in agonist mode” value [1] is reported as “no effect”, the “blood serum glucose level vs HSD Control” value [2] is reported as “lower” and the NFATc1-reporter activity (NFATc1-reporter) is reported as “no activity”. The “decrease in average linear size of visceral fat adipocytes compared to HFD control” value ([3]; EPSI 5 mg/kg i.n.) was “more than 12%”, the “decrease in average linear size of visceral fat adipocytes compared to HFD control” value ([3]; EPSI 5 mg/kg i.p.) was greater than 7% and the “visceral fat (adipose tissue surrounding the epididymis) weight” value ([3]; EPSI 5 mg/kg i.p. and i.n., metformin 250 mg/kg p.o., vs HFD control) was “the same effect”. For the same compound, the AP1-reporter activity [4] was “no activity”, the “food consumed, interval 0-30 minutes” value [5] was 0.04 ± 0.014 g and the “food consumed, interval 30-60 minutes” value [5] was 0.08 ± 0.03 g. The “total food consumed (1.5 hours)” value [5] was 0.29 ± 0.066 g and the Stat4-reporter activity [6] was “no activity”.
